Test results: EP0108147B1, “Use of a protoberberine alkaloid and composition containing same” (MAROKO, Peter R., priority 1982, dated 1983)
At least one structure is not confirmed: it was looked up by name or label, or the drawing left a doubt.

How the values were obtained:
[1] = tested on: closed-chest dogs; assay: Protocol TE: electrophysiologic properties in closed-chest dogs; settings: dog, in vivo
Experimental: Experiments were carried out to analyze the electrophysiologic properties of berberine (portocol TE). In this protocol closed-chest dogs were anesthetized with intravenous pentobarbital (30 mg/Kg). Electrode catheters were placed, under fluoroscopy, in the high right atrium, right venticle, and in the aorta near the non-coronary aortic cusp to record His bundle potential. In addition aortic pressure (Statham gauge) and surface ECG were obtained. All parameters were recorded on an Electronic for Medicine polygraph (Model DR 8), with a paper speed of 100 mm/sec. The recordings were obtained before berberine treatment and after five successive five minute infusions of 0.2 mg/Kg/min of berberine in each one of the dogs. At each one of these time intervals recordings were done with the "spontaneous" normal sinus rhythm and with atrial and ventricular extrastimuli were given during the normal sinus as well as during the pacing phases of the experiment to determine the refractory period of the artria, atrio-ventricular node and of the His-Purkinje system and ventricle. Moreover, sinus node recovery time was measured.

[2] = tested on: Mongrel dogs; assay: Protocol Z: continuous 35 minute infusion in anesthetized open-chest dogs, constant left ventricular pressure; assay type: in vivo; settings: 0.2 mg/Kg/min (Table XIII)
Experimental: Mongrel dogs weighing between 15 and 25 kg were anesthetized with intravenous sodium thiamylal (20 mg/kg initially with additional doses given as needed). The dogs were intubated endotracheally, and respiration was maintained by a Harvard respirator. The chest was then opened in the fourth left intercostal space and the heart suspended temporarily in a pericardial cradle.
Aortic pressures were recorded through a polyethylene cannula introduced through the carotid artery (Statham P23 Db pressure transducer) and electrocardiogram (lead aVF) were recorded throughout the experiment on a polygraph (Gould Instruments). […] An electromagnetic flowmeter (Biotonix Laboratories) was placed around the ascending aorta and the aortic flow was recorded on a polygraph. […]
The first ("pigtail") served as a reference, while the second (Millar microtip transducer catheter) was connected through a Millar transducer (Millar Instruments, Houston, Texas) to the polygraph, where both left ventricular pressure curves were recorded simultaneously. The left ventricular end diastolic pressure was recorded separately through a Millar catheter. The first derivative of the left ventricular pressure (dP/dt) was obtained by electronic differentiation of the left ventricular pulse recorded through the Millar catheter. […]

[3] = tested on: Mongrel dogs; assay: Protocol HV: acute left ventricular failure by coronary microsphere embolization, closed chest; settings: dog, in vivo
Experimental: - Experiments were carried out in 21 mongrel dogs of either sex with body weight between 19 and 39 kg. Anesthesia was induced with sodium pentobarbital, 25 mg/kg of body weight intravenously, and small supplementary doses were given as necessary to maintain a constant level of anesthesia. The dogs were placed in the left lateral position and ventilation was maintained through a cuffed endotracheal tube with a volume-controlled respirator (Harvard Apparatus Co., Millis, Massachusetts). Polyethylene cannuleae were placed into the jugular and femoral veins for intravenous infusions and drug adminstration. Electrocardiograms (lead aVF) were monitored continuously throughout the experiments.
A polyethylene cannula was introduced into the aorta through the left carotid artery to record arterial pressure. […] For adjustment of zero level, left ventricular pressure was also measured through the fluid-filled lumen in the Millar catheter (Statham P23 ID transducer). The maximal rate of rise of left ventricular pressure, LV dP/dt, was recorded by means of a differentiator. All these parameters were recorded continuously on a polygraph (Gould 2800, Gould Instruments, Cleveland, Ohio). Cardiac output was determined by the thermodilution technique, using a thermistor catheter in the pulmonary artery and calculated by a cardiac output computer (Elecath, Electro- catheter Corp., Rahway, New Jersey). […]

[4] = tested on: closed-chest barbiturate anesthetized dogs; assay: Endotoxic (LPS) shock in dogs; settings: dog, in vivo
Experimental: Nineteen closed-chest barbiturate anesthetized with artificial respiration dogs were studied. All measurements were done by the technique described before LPS.
At this time, i.e., two hours and fifteen minutes after administration of LPS, 1000 ml of 5% of dextrose in water was administered to all dogs during the next forty-five minutes.
Urinary output during the second hour of shock (before berberine or placebo treatments) and the third hour of shock (when the dogs were treated with either berberine of placebo) were compared in each dog. This analysis is of crucial importance since it would indicate the restoration of effective organ perfusion which in the case of the kidneys results in urinary output.

[5] = tested on: Sprague-Daley rats; assay: Rat model of acute coronary artery occlusion, mortality; settings: in vivo
Source text: Another series of experiments were done using the rat model of acute coronary artery occlusion. In these experiments the effect of berberine was examined on mortality. Thus, Sprague-Daley rats (Charles River) weighing over 300 grams were anesthetized with ether, their chest opened in the 5th left intercostal space their heart everted and the left main coronary occluded with a surgical stitch. Thereafter the heart was repositioned and the thorax closed with a purse string suture, as described in more detail by us previously (Maclean, Fishbein, M. C. Braunwald, E. and Maroco, P. R., Long Term Presentation of Ischemic Myocardium After Experimental Coronary Artery Occlusion. J. Clin. Inv. 61, pages 541-551, 1978 and also in Maclean, D., Fishbein, M. D., Maroko, P. R. and Braunwald, Hyaluronidase-Induced Reductions In Myocardial Infarct Size. Science, 194, pages 199-200 (1976)). The mortality in rats weighing over […] was greater than in smaller rats.
After finishing the surgical procedure, the rats were randomized into controls (injection of 5% dextrose in water) and berberine treated (1 mg/Kg intravenously as a bolus).

[6] = tested on: dogs; assay: Myocardial oxygen consumption (MV02) and epicardial ST segment elevation experiments; assay type: in vivo; settings: varying dosages
Source text: These changes were due to lower. myocardial oxygen consumption during the occlusion with berberine treatment. […] This is quite an advanageous therapeutic combination of properties which further distinguish the compounds used in the invention from the conventional drugs.

[7] = tested on: anesthetized closed chest dogs; assay: Association of ouabain and berberine on contractility (LV dP/dt), constant systolic pressure; settings: dog, in vivo
Experimental: In anesthetized closed chest dogs the systolic arterial pressure was maintained constant with a reservoir full of heparinized blood (as in protocol "M" and "Z" described above) and a "pigtail" and Millar catheter were introduced into the left ventricular cavity (as in protocol "Z" and "HV", described above). All data was recorded on 8 channel polygraph (Gould Instruments) with a paper speed of 200 mm/s when necessary and at 2 mm/s constantly.

SMILES: COc1cc2c(cc1OC)[C@@H]1Cc3ccc(OC)c(OC)c3CN1CC2 [tetrahydropalmatine]
- result when substituted in the electrophysiologic experiments [1]: likewise
- Stroke volume (SV) [2]: increased significantly
- overall result in the model of acute left ventricular failure [3]: perform in an equivalent manner
- control of endotoxic shock caused by LPS [4]: Like positive results are obtained
- antiarrhythmic control after coronary artery occlusion [5]: like antiarrhythmic control is observable
- myocardial oxygen consumption and myocardial injury [6]: reduction on myocardial oxygen consumption and less myocardial injury than the control
- result in the association with ouabain [7]: perform in the same manner
